# Data from PubChem BioAssay AID493014 (National Center for Advancing Translational Sciences (NCATS), 2011).
# Where “and” joins values, the source holds several entries; their conditions need not be identical. Identical values can stand only once. Some of the results follow. Further columns of the screen follow, without active or inactive calls. Most of these compounds were active or inconclusive in the main read-out, so they are no random draw. The note in brackets gives the kind of curve behind each potency; many fits are weak.
# Experiment: qHTS Assay to Find Inhibitors of Chronic Active B-Cell Receptor Signaling
# Settings: ABC-DLBCL IkBa-CBG/CBR reporter, luminescence ratio (green luciferase fused to IkBa over red control in TMD8 lymphoma cells), 4 h
# Procedure, shortened: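 Doxycycline induced both beetle luciferases in TMD8 lymphoma cells; IKK-driven degradation limits the IkappaBalpha-fused green signal, while red luminescence normalises for cell number and nonspecific effects. Compounds tested up to 46 uM, 4 hrs.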
# [1] = measured here: CBR red luminescence, cell number
# [2] = measured here: IkBa-CBG green luminescence
Compound,AC50 [1],AC50 [2]
O=C(Nc1ccccc1)N(CCCN1CCOCC1)Cc1cc2cc3c(cc2[nH]c1=O)OCCO3,"2.31 µM [falling, full curve, poor fit]",
Fc1ccc(N2CCN(c3cnc4ccccc4n3)CC2)cc1,"1.78 µM [rising, partial curve, poor fit]",
COC(=O)C1=C(N)OC2=C(C(=O)CCC2)C1c1cccs1 (stereo not given),"29.1 µM [rising, single point]",
CCCCNC(=O)CC(C(=O)N1CCc2ccccc21)n1ccnc1 (stereo not given),"14.6 µM [falling, partial curve, poor fit]",
O=C(N/N=C/c1ccc2c(c1)OCO2)c1ccccn1,"2.82 µM [falling, full curve]",
O=C(NNC(=O)c1cc(-c2ccccc2)nn1-c1ccccc1)c1ccccc1,"18.4 µM [rising, partial curve]","18.4 µM [falling, single point]"
CCc1sc(C(C2C(=O)CC(C)(C)CC2=O)C2C(=O)CC(C)(C)CC2=O)cc1[N+](=O)[O-],"35.5 µM [falling, single point]",
NNc1nc(-c2ccccc2)cs1,"4.47 µM [falling, partial curve]",
CN(CC(=O)Nc1ccccc1C(F)(F)F)C(=O)Cn1c(=O)oc2ccccc21,"18.4 µM [falling, partial curve, poor fit]",
Cc1oc(S(=O)(=O)N2CCCC2)cc1C(=O)Nc1ccccc1,"0.251 µM [falling, full curve, poor fit]",
O=C(COC(=O)Cc1ccccc1F)Nc1ccc(SC(F)F)cc1,"32.6 µM [rising, single point]",
O=C(CNC(=O)c1ccccc1)OCCOc1cccc(Cl)c1,"23.1 µM [rising, partial curve, poor fit]",
O=C(CCN1C(=O)c2ccccc2S1(=O)=O)NCc1ccc(F)cc1,"25.9 µM [rising, single point]",
CCOc1ccc2nc(N3CCC(C(=O)Nc4nnc(CC)s4)CC3)sc2c1,"29.1 µM [falling, partial curve, poor fit]",
Cc1nnc(SCC(=O)N2CCOCC2)c2ccccc12,"14.1 µM [falling, single point]",
CCOC(=O)CSc1nnnn1-c1cc(OC)ccc1OC,"20 µM [rising, partial curve, poor fit]",
Clc1ccccc1Nc1ncnc2c1nnn2Cc1ccccc1,"3.98 µM [falling, partial curve, poor fit]",
COc1cc(NC(=O)c2noc3c2CCC3)c(OC)cc1Cl,"6.51 µM [falling, single point]",
Cc1cccc(/N=C/c2c(O)c3ccccc3oc2=O)n1,"1.84 µM [falling, full curve, poor fit]",
CS(=O)(=O)Nc1cccc(-c2cn3ccccc3n2)c1,"0.501 µM [rising, full curve, poor fit]",
Cc1cc(C)c2c(c1)/C(=N/NC(=O)c1ccc(O)cc1)CCC2,"3.55 µM [falling, partial curve]",
O=[N+]([O-])c1ccc(CCNc2cccc3ccccc23)c([N+](=O)[O-])c1,"32.6 µM [falling, single point]",

Compound,AC50 [1],AC50 [2]
Cc1ccc(NC(=O)CSc2nc3ncc(Cl)cc3[nH]2)c(C)c1,"35.5 µM [falling, single point]",
O=C(/C=C/c1ccc(F)cc1)c1cc(Br)ccc1O,"1.78 µM [rising, full curve, poor fit]",
O=C(C(Cc1ccccc1)NS(=O)(=O)c1cccc2cccnc12)N1CCc2ccccc21 (stereo not given),"6.51 µM [rising, single point]",
CCN(CC)CCCNC(=O)C1CCN(C(=O)c2oc3cc4sc(N(C)C)nc4cc3c2C)CC1,"31.6 µM [rising, single point]",
NC(=O)C1CCN(CC(O)COc2ccc(-c3ccccc3)cc2)CC1 (stereo not given),"6.31 µM [rising, full curve, poor fit]",
NNC(=O)c1cc(-c2ccccc2)sc1N,"4.47 µM [rising, partial curve, poor fit]",
Cc1cc2cc(C(=O)N3CCc4c([nH]c5ccccc45)C3c3ccccn3)ccc2o1 (stereo not given),"35.5 µM [falling, single point]",
O=C(N/N=C/c1ccc2c(c1)OCO2)c1ccc2c(c1)OCO2,"1.78 µM [falling, partial curve, poor fit]",
CCOC(=O)c1cccc(NC(=O)c2ccc(NC(=O)c3ccco3)cc2)c1,"14.1 µM [falling, single point]",
CN(C)c1ccc(N=Nc2nc3ccccc3n2C)cc1,"0.282 µM [falling, full curve, poor fit]",
Cc1ccc(Nc2nc3ccccc3s2)cc1,"0.291 µM [rising, full curve]",
COc1ccccc1OCC(=O)Nc1nnc(-c2ccco2)s1,"4.47 µM [falling, partial curve, poor fit]",
CCOc1ccc(C(=O)Nc2ccc(Cl)cn2)cc1Cl,"2.82 µM [rising, single point]",
O=C1C(Cc2ccc(O)cc2)NC(=S)N1Cc1ccccc1 (stereo not given),"35.5 µM [falling, single point]",
O=C(OCc1c(-c2ccccc2)ncc2ccccc12)c1ccc(Br)cc1,"6.51 µM [falling, full curve]",
COc1ccc(C(=O)Nc2cccc(-c3nc4ncccc4o3)c2C)cc1,,"0.411 µM [rising, partial curve, poor fit]"
COc1cccc(-c2ccc(NC(=O)C3CCCN(Cc4cnn(C)c4)C3)cc2)c1 (stereo not given),"35.5 µM [falling, single point]",
OCC1CCCCN1C(=S)Nc1cccc(Cl)c1 (stereo not given),"12.6 µM [rising, partial curve]",
Cc1ccc(NC(=O)C(C)N=C2NS(=O)(=O)c3ccccc32)cc1F (stereo not given),"3.98 µM [rising, full curve, poor fit]",
O=C(Cc1ccccc1F)Nc1nc(-c2cccs2)cs1,"11.2 µM [falling, partial curve]",
Cn1c(=O)c2cc3c(nc2n(C)c1=O)CC(c1ccccc1)CC3=O (stereo not given),"6.31 µM [rising, single point]",
COCc1cc(S(=O)c2ccc(Cl)cc2)nc(C)n1 (stereo not given),"11.2 µM [falling, partial curve]",

Compound,AC50 [1],AC50 [2]
CCOc1ccc(N2C(=O)CC(Sc3nnnn3-c3ccccc3)C2=O)cc1 (stereo not given),"17.8 µM [falling, partial curve, poor fit]",
O=C(O)c1ccc(N/N=C/C=C/c2ccccc2[N+](=O)[O-])cc1,"0.0251 µM [falling, full curve, poor fit]",
CCN1CCN(c2ccc(S(=O)(=O)N3CCOCC3)cc2NC(=O)c2ccc(C)cc2C)CC1,"0.146 µM [rising, full curve, poor fit]",
COc1ccc(C(=O)Nc2cc(C)on2)cc1S(=O)(=O)N1CC(c2ccccc2)CC1=O (stereo not given),"0.891 µM [falling, full curve, poor fit]",
O=C(O)c1ccc(NCc2nc3ccccc3n2Cc2ccccc2)cc1,"4.47 µM [falling, partial curve]",
COCCCN(C(=O)CCOc1ccc(C(C)(C)C)cc1)c1c(N)n(Cc2ccccc2)c(=O)[nH]c1=O,"29.1 µM [falling, single point]",
Cc1cc(C)cc(-c2nc(-c3ccncc3)no2)c1,"23.1 µM [rising, partial curve, poor fit]",
COc1ccc2[nH]c3c(c2c1)CCN1C(=O)N([C@@H](C)C(=O)NCc2ccccc2OC)C(=O)[C@]31C,"15.8 µM [falling, single point]",
COCCN(C(=O)CSc1n[nH]c(-c2ccccc2)n1)c1c(N)n(Cc2ccccc2)c(=O)[nH]c1=O,"0.291 µM [rising, full curve, poor fit]",
C=CCNC(=O)c1onc(CSc2ccc(F)cc2)c1C(=O)O,"15.8 µM [falling, partial curve]",
CCCCN(C(=O)CSc1nnc(Nc2ccccc2)s1)c1c(N)n(CCC)c(=O)[nH]c1=O,"20 µM [rising, single point]",
Nc1c(-c2cccc(Cl)c2)cnn1-c1cccc([N+](=O)[O-])c1,"0.794 µM [rising, full curve, poor fit]",
O=C(CN1CC(=O)Oc2ccccc21)OCC(=O)c1ccc(F)cc1,"10 µM [falling, partial curve, poor fit]",
CC(=O)Nc1ccccc1OCC(=O)NC(C)c1ccccc1 (stereo not given),"1.64 µM [rising, full curve, poor fit]",
Cc1nnc(SCC(=O)NCc2ccccc2)n1-c1ccccc1,"3.26 µM [falling, single point]",
CCCCN(C(=O)Nc1ccc(Cl)cc1)C1CCN(C(C)=O)CC1,"5.8 µM [rising, full curve, poor fit] and 25.1 µM [rising, single point]",
C=CCc1ccc(OCC(O)COc2ccc(CC=C)cc2OC)c(OC)c1,"23.1 µM [falling, single point]",
CCNc1nc(SCC(=O)OC)nc(N(C)C)n1,"35.5 µM [falling, single point]",
C=C(C)CNC(=S)NNC(=O)CCn1c2ccccc2c2ccccc21,,"20.6 µM [falling, partial curve, poor fit]"
Cc1ccc(NC(=S)NCCC(c2ccccc2)c2ccccc2)c(C)c1,"29.1 µM [falling, single point]",
